Results taken from patent US20240043552A1 (Eli Lilly, published 2024).
Changes are numbered by the printed parent chain. No constants are given. Whether binding was seen depends on the method and setting. Some entries that bind do so weakly or less than the wild type.

Amino acid sequences for entries named in this document (tags omitted). Residues count along the entry.
UniProt P36941, residues 28-227: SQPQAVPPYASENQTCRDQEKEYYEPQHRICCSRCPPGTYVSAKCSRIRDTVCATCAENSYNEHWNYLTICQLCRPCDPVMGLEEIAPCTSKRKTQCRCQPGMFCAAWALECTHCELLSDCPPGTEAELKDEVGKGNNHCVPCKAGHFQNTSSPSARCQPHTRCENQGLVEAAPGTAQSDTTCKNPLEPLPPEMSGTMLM

B1: MetMAb × BHA10 IgG BsAb, CH1/Cκ design 14.3.1.1 (bispecific antibody)
heavy 1: EVQLVESGGGLVQPGGSLRLSCAASGYTFTSYWLHWVRKAPGKGLEWVGMIDPSNSDTRFNPEFKDRFTISADTSKNTAYLQMNSLRAEDTAVYYCATYRSYVTPLDYWGQGTLVTVSSASTKGPSVFPLAPSSKSTSGGTAALGCLVADYFPEPVTVSWNSGALTSGVHTFPAVLQSSGLYSLASVVTVPSSSLGTQTYICNVNHKPSNTKVDKKVEPKSCDKTHTCPPCPAPELLGGPSVFLFPPKPKDTLMISRTPEVTCVVVDVSHEDPEVKFNWYVDGVEVHNAKTKPREEQYQSTYRVVSVLTVLHQDWLNGKEYKCKVSNKALPAPIEKTISKAKGQPREPQVYTLPPSREEMTDNQVSLTCLVKGFYPSDIAVEWESNGQPENNYKTTPPVLMSDGSFFLASKLTVDKSRWQQGNVFSCSVMHEALHNHYTQKSLSLSPG
light 1: RIQMTQSPSSLSASVGDRVTITCKSSQSLLYTSSQKNYLAWYQDKPGKAPKLLIYWASTRESGVPSRFSGSGSGTDFTLTISSLQPEDFATYYCQQYYAYPWTFGQGTKVEIKRTVAAPSVFIFPPSDEQLKSGTARVVCLLNNFYPREAKVQWKVDNALQSGNSQESVTEQDSKDSTYSLISTLTLSKADYEKHKVYACEVTHQGLSSPVTKSFNRGEC
heavy 2: QVQLVQSGAEVKKPGSSVKVSCKASGYTFTTYYLHWVRYAPGQGLEWMGWIYPGNVHAQYNEKFKGRVTITADKSTSTAYMELSSLRSEDTAVYYCARSWEGFPYWGRGTTVTVSSASTKGPSVFPLAPSSKSTSGGTAALGCLVKDYFPEPVTVSWNSGALTSGVHTFPAVLQSSGLYSLSSVVTVPSSSLGTQTYICNVNHKPSNTKVDEKVEPKSCDKTHTCPPCPAPELLGGPSVFLFPPKPKDTLMISRTPEVTCVVVDVSHEDPEVKFNWYVDGVEVHNAKTKPREEQYQSTYRVVSVLTVLHQDWLNGKEYKCKVSNKALPAPIEKTISKAKGQPRRPRVYTLPPSREEMTKNQVSLVCLVKGFYPSDIAVEWESNGQPENNYKTTPPVLDSDGSFFLYSVLTVDKSRWQQGNVFSCSVMHEALHNHYTQKSLSLSPG
light 2: DIQMTQSPSSLSASVGDRVTITCKASQNVGINVAWYQRKPGDAPKSLISSASYRYSGVPSRFSGSGSGTDFTLTISSLQPEDFATYFCQQYDTYPFTFGQGTKVEIKRTVAAPSVFIFPPSDKQLKSGTASVVCLLNNFYPREAKVQWKVDNALQSGNSQESVTEQDSKDSTYSLSSTLTLSKADYEKHKVYACEVTHQGLSSPVTKSFNRGEC
notes: Human IgG1; also called MetMAb × BHA10 14.3.1.1
B2: MetMAb × BHA10 IgG BsAb, CH1/Cκ design 14.3.1.2 (bispecific antibody)
heavy 1: B1 heavy 1 with A185G
light 1: B1 light 1
heavy 2: B1 heavy 2
light 2: B1 light 2
notes: Human IgG1; also called MetMAb × BHA10 14.3.1.2
B3: Pertuzumab × BHA10 IgG BsAb, CH1/Cκ design 14.3.1.1 (bispecific antibody)
heavy 1: EVQLVESGGGLVQPGGSLRLSCAASGFTFTDYTMDWVRKAPGKGLEWVADVNPNSGGSIYNQEFKGRFTLSVDRSKNTLYLQMNSLRAEDTAVYYCARNLGPSFYFDYWGQGTLVTVSSASTKGPSVFPLAPSSKSTSGGTAALGCLVADYFPEPVTVSWNSGALTSGVHTFPAVLQSSGLYSLASVVTVPSSSLGTQTYICNVNHKPSNTKVDKKVEPKSCDKTHTCPPCPAPELLGGPSVFLFPPKPKDTLMISRTPEVTCVVVDVSHEDPEVKFNWYVDGVEVHNAKTKPREEQYQSTYRVVSVLTVLHQDWLNGKEYKCKVSNKALPAPIEKTISKAKGQPREPQVYTLPPSREEMTDNQVSLTCLVKGFYPSDIAVEWESNGQPENNYKTTPPVLMSDGSFFLASKLTVDKSRWQQGNVFSCSVMHEALHNHYTQKSLSLSPG
light 1: RIQMTQSPSSLSASVGDRVTITCKASQDVSIGVAWYQDKPGKAPKLLIYSASYRYTGVPSRFSGSGSGTDFTLTISSLQPEDFATYYCQQYYIYPYTFGQGTKVEIKRTVAAPSVFIFPPSDEQLKSGTARVVCLLNNFYPREAKVQWKVDNALQSGNSQESVTEQDSKDSTYSLISTLTLSKADYEKHKVYACEVTHQGLSSPVTKSFNRGEC
heavy 2: B1 heavy 2
light 2: B1 light 2
notes: Human IgG1; also called Pertuzumab × BHA10 14.3.1.1
B4: Pertuzumab × BHA10 IgG BsAb, CH1/Cκ design 14.3.1.2 (bispecific antibody)
heavy 1: B3 heavy 1 with A185G
light 1: B3 light 1
heavy 2: B1 heavy 2
light 2: B1 light 2
notes: Human IgG1; also called Pertuzumab × BHA10 14.3.1.2

Target: T1, hLTβR-Fc-biotin (human, UniProt P36941 28-227, limits assumed, biotin-labelled with EZ-LINK Sulfo-NHS-LC-Biotin)
T1 construct: Bought (R&D systems); Detection antigen of the sandwich; also called LTPR (as printed once); not shown: Fc of the bought fusion protein
Experiment: dual antigen sandwich ELISA

Binder | binding
B1 | binds
B2 | binds
B3 | binds
B4 | binds
